For at least one compound, name, drawing or mass did not settle the structure. Marks after values point to notes of the source that are not given here.
Tested on: highly enriched culture of strain VS
Test: Batch dechlorination and growth, highly enriched culture of strain VS
Type: cell-based, Dehalococcoides species strain VS
Description: The purpose of the second study was to compare dechlorination rates of PCE, TCE and DCE between the three different cultures that grew on VC (Victoria, KB-1/VC and Pinellas). The development of inocula here was performed with VC, just as in the first study. For the growth and substrate utilization experiments, triplicate bottles were set up for each culture containing 1 mL of inoculum and either neat PCE (0.4 μL), neat TCE (0.3 μL), saturated DCE solution (34 μL) or gaseous VC (200 μL). To further investigate TCE removal, bottles (120 mL) were filled with 20 mL of a highly enriched culture of strain VS made from the Victoria culture. […] The change in strain VS concentration during VC and TCE utilization was then determined both by competitive PCR and by an activity procedure evaluated previously for strain VS. In the activity procedure a non-growth limiting concentration of VC (150 μL) along with excess hydrogen is added to a culture and the initial dechlorination rate is measured (over <1 day). A good estimate of strain VS concentration can then be obtained using the previously determined strain VS maximum VC utilization rate (7.8×10^−10 μmol Cl^− (cell·d)^−1). The increase in strain VS concentration during TCE or VC utilization was determined with these two procedures on the culture before and after TCE and VC utilization. […]

SMILES: C=CCl [VC, vinyl chloride]
- Yield ((20 mL/1000 mL)(final cells − initial cells)/mass dechlorinated): 4.6 ± 0.3^a × 10^8 cell μmol^−1
- Initial cells (VC utilization rate divided by 7.8 × 10^−10 μmol ethene/cell · d): 3.6 ± 0.3^a × 10^10 cell L^−1

— patent US8647824B2, “Microbial reductive dehalogenation of vinyl chloride” (The Board of Trustees of the Leland Stanford Junior …, priority 2004, dated 2014)
